In patent publication US4956355A, “Agents for the arrest and therapy of retroviral infections” (Colthurst Limited, priority 1987, dated 1990):
At least one compound was matched to its structure with a doubt left.

Key:
Assay type in all cases: cell-based
HIV in human macrophages = test: Inhibition of cytoplasmic HIV p24 antigen in HIV-infected macrophages
Protocol: (§1) 1. […] All three viral strains were grown in the Tissue Culture Laboratory of the AIDS Activity Division of San Francisco General Hospital where titers of […] infectious units per ml were routinely achieved.
(§2) 2. Source of cells: The VB cell line used in Example 1 is a T lymphoma cell line that is highly susceptible to infection with HIV, and expresses high levels of cell surface CD4 molecules. This cell line forms syncytia within two days after infection with all strains of HIV tested to date. […] This is used to quantitate infection in the absence of syncytial formation, infection being quantitated by immunofluorescence assays. […] Crowe et al. supra have devised an assay system that allows quantitation of HIV infection, and inhibition of infection using immunocytofluorographic analysis. In order to quantitate HIV infection in macrophages, they grow macrophages in Teflon (Trade Mark) culture vessels which maintain macrophages in suspension in vitro culture for up to six months. Cell surface and cytoplasmic immunofluorescence staining is then performed to quantitate antigens in macrophages by flow cytometry.
3. […] HIV p24 antigens were detected utilizing a mouse monoclonal anti-p24 (du Pont), and mouse antibodies were identified utilizing an FITC conjugated goat anti-mouse IgG. […]

[1] = tested on: HIV in activated peripheral blood lymphocytes; test: Inhibition of HIV mediated cytopathic effects / p24 antigen production in activated peripheral blood lymphocytes; conditions: measured at one week; range of 1 μg of AZT per ml of culture medium
Protocol: as §1
4. HIV soluble p24 antigen detection: Soluble p24 antigens were measured with the Abbott HIV antigen detection system.
(b) Although the VB T lymphoma cell line behaves in a similar manner to peripheral blood CD4 positive T lymphocytes in regard to HIV induced cytopathic effects, the above described experiments were performed on phytohemagglutinin (PHA) activated lymphocytes to determine whether lymphocytes are more or less sensitive to Compounds A and B than is the VB cell line. In this assay system, at the time that multinucleated giant cells appeared within infected lymphocyte cultures, the supernatants were analyzed for the presence of HIV p24 antigens and were titered on indicator VB lymphoma cells to determine the titer of infectious virus present at each point.
To test whether the effects of compounds A and B on acute VB T lymphoma infection would be mimicked by activated peripheral blood lymphocytes (PBC), HIV at a multiplicity of infection of one was added to lymphocytes that had been activated for 48 hours with 2 μg per ml of PHA. After the initial infection for one hour, the activated lymphocytes were washed and resuspended for the one week of culture. […]

[2] = tested on: HIV in VB T lymphoma cell line; test: Inhibition of HIV mediated cytopathic effects (multinucleated giant/syncytial cell formation) in acutely infected VB tumor cell line; conditions: measured at one week; range of 1 μg of AZT per ml of culture medium
Protocol: as §1
as §2, with “cytometry. […]” for “cytometry.”
(a) Inhibition of multinucleated giant cell formation in acutely infected VB cells infected at a multiplicity of infection of 1, and scored two days after infection in the presence or absence of varying concentrations of drug, for the formation of multinucleated giant cells. […]

Question: Cc1cn([C@H]2C[C@H](N=[N+]=[N-])[C@@H](CO)O2)c(=O)[nH]c1=O [AZT, azidothymidine, reference compound] was tested. Which “inhibiting macrophage infection or modulating HIV production from infected macrophages” value (HIV in human macrophages) did it give?
Answer: completely ineffective

Question: And the “HIV p24 antigen in HIV-infected macrophages” value (HIV in human macrophages; 0.05 μg per ml to 50 μg per ml)?
Answer: no change from control values

Question: And the “protection of lymphocytes from acute infection with HIV” value [1]?
Answer: virtually complete protection

Question: What about the “protection of T lymphoma cells from acute infection with HIV” value [2] of the same molecule?
Answer: virtually complete protection
